According to article PMC5534433:

T1: C-terminal FLAG-TEV-ProtA-tagged Rqt1 (Hel2) (S. cerevisiae) (UniProt Q05580)
T1 sequence: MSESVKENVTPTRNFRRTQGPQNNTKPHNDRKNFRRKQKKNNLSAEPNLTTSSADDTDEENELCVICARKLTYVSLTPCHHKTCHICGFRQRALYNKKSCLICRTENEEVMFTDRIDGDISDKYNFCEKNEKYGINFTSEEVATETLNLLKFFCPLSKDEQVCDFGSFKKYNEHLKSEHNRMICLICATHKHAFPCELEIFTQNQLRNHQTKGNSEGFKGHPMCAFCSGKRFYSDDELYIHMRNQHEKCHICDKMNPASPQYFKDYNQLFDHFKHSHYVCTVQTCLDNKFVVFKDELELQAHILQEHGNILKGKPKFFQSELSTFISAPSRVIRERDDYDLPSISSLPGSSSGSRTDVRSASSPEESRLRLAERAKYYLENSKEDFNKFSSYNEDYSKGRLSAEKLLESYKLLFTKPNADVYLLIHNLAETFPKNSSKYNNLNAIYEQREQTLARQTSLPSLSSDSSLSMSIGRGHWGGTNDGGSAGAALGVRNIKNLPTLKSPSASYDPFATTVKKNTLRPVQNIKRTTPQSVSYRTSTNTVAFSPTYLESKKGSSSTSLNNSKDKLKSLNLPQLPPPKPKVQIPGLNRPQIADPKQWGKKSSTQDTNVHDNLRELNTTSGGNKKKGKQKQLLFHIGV

B1: Ubiquitinated uS10 (40S ribosomal protein) (protein, UniProt P38701 1-121)
chain: MSDFQKEKVEEQEQQQQQIIKIRITLTSTKVKQLENVSSNIVKNAEQHNLVKKGPVRLPTKVLKISTRKTPNGEGSKTWETYEMRIHKRYIDLEAPVQIVKRITQITIEPGVDVEVVVASN
modifications: ubiquitinated (mono- or di-ubiquitinated; ubiquitination sites K6 and K8)
B2: Cue3 (coupling of ubiquitin conjugation to ER degradation 3) / Rqt3 (protein, UniProt P53137 1-624)
chain: MLSRYNRVIEINGGNADISLPIVKFPPFKLRAQLIEKDPVVWLHLIETYVTYFEYLMQGANVELLDESTLDHLRLFLRTYLHEIADEEGKLLSLGINHDVSEQLYLLKGWIFSLIKKCGLLHLQIFGDSLWNLIKVYVRRNPDSIRGLIDGSLKPRINTQRVQLDKSYQVQQHLKQLIESGKFKRIDLRCVEDLLSAKSMQPNKFAENFFTANWIEILEALWAKGQGRGHKEARELIIISLFSVSADRLLKITKELGISNFETLALYPLLGTMLINEGVHKRLPDLKSKLLFLNLGGLSMDEGDHMSYPTSSGTEVNEEQLSALMELFPQFSKYQLSQTLLAYDNNIELVTNKIFEDPTIIEAFSREPAEEEVEPVSDGDNASFTEELSILDRGDSSKNKELDKKIISEGVPDELRNKTLTRALKLLYEADEDERDDTYDEADVNRSDPSKRIGLQEDEESYDTKDDSNEVRQDHNYHIVEAYLWNLLKEDPKLFERSKRGTKVRKTMKEMTSWSDEKIEGWCRMLERSPTRARLLEKKFMFKGNSKTGKTSYVHNRDSQNDGNVVKEQAKQKKSENIKKHEPQSTEQKKRQHAKNEKRKGARANHNRKKGHDKKLARAGNNAI
B3: YKR023W / Rqt4 (protein, UniProt P36119 1-530)
chain: MTRKQAIDYAIKQVPQILPLEESDVKALCEQVLSTSSDDPEQIASKFLEFLGHEDLSFEFVMKFNELLNQNDKKEEKKTKNVHLEHTAPTSWKNESKQPTNNYINKKGDEKPKKLKDEKKSSTTRPTVQPSNQSTQSNPIKEKKEHRSKGKLQSLQEIDEAIKMLELRDSGSSKNCNCQGTRHPVFDIAPNCLHCGKVVCVIEGLNKGKCGHCHEQLISDNERTQMVEILNQEKNELNGSSSSLSNASNGANVPKKKTKTYKITSGMGKNLFAEQDKLFDFIERKRERERKRNEVLKLQEEKEESEAKERQASEHDHKAEENPELLAAQERLDRLLYFQDTSAERTKIIDNASDFDMNQEVGLWGSARERALALKKQQRNLRKWEKVEKERNGRREKYVVSMNIGSNGKVTMTEVPKDTENVIAGSDDDISDISDEEDISDLKHIHALKSEINTTKSLENLHLQSKAWDYERDKKQFDRPTYVKKNSDTAQQNRKTEEKAHDMQAYDLKSRVQVDQNADASVEQNILAVL

Each binder was assayed against T1, C-terminal FLAG-TEV-ProtA-tagged Rqt1 (Hel2) (S. cerevisiae) (assay: affinity purification with mass spectrometry; Rqt1-FTP from yeast lysate on IgG-conjugated Dynabeads, TEV elution; Rqt1-ribosome complex on SDS-PAGE, bands identified by MS; 50 mM Tris pH 7.5, 100 mM NaCl, 10 mM MgCl2, 0.01% NP-40, 1 mM DTT).

| binding | Binder |
| --- | --- |
| binds | B1 |
| binds | B2 |
| binds | B3 |

No constants are given. Whether binding was seen depends on the method and setting. Binding seen in cells or lysates may run through a third protein. A yes stands for co-enrichment or nearness to the bait. Other partners may have been found. Where a sequence is shown, tags or fusion partners need not be part of it.
